Experimental data published in patent US4402942A, “Oxytocin derivatives” (Ferring AB, priority 1980, dated 1983).
Not every detail of the peptide structures is certain; ends, links or a residue may be inferred.

Assays:
[1] = tested on: isolated human myometrium (pregnant), oxytocin induced contractions; experiment: Inhibition of oxytocin induced contractions of isolated uterine tissue from pregnant women; format: cell-based
Protocol: From 17 patients undergoing caesarean section (week 37-40) a transverse segment of uterine tissue was excised from the isthmic part of the uterus. Tissue pieces were also excised from the ventral side of the uterus of 21 non-pregnant women in fertile age undergoing hysterectomy. The tissue pieces were immediately placed in Krebs-Ringer solution (mM: NaCl 118, KCl 4.6, CaCl2 2.5, MgSO4 1.15, NaHCO3 24.9, KH2 PO4 1.15 and glucose 5.5) at 0° C. and used within two hours after the operation. Segments pieces 25×3×3 mm large were mounted in an organ bath containing 10 ml Krebs-Ringer solution at 37° C. and gassed with 5% CO2 in oxygen. After an adaptation period of 30 minutes contractions were isometrically recorded at a resting tension of 1.25 g. In experiments involving pregnant women use was made of oxytocin (0.013-1.3 μg/ml) as an agonist. Lysinevasopressin (0.07-1.3 μg/ml) was used as an agonist where non-pregnant tissue was tested. A suitable dose of agonist was selected, which gave an effect corresponding to approximately 40% of the maximum effect. The antagonist was used in a concentration of 0.33-1.32 μg/ml. […] The inhibitory effect of the antagonist was measured by planimetry, for 15 minutes after the addition of the peptide, of the total surface of the curve recorded. Inhibition was expressed as a percentage of the effect obtained with the agonist alone.

[2] = tested on: non-pregnant human uterus, vasopressin induced contractions; experiment: Inhibition of lysine vasopressin induced contractions of isolated uterine tissue from non-pregnant women; format: cell-based
[3] = tested on: uterine contractions caused by infusion of oxytocin; experiment: Rat in vivo uterine contractions under oxytocin infusion
Protocol: Sprague Dawley rats (250 g) in natural estrous were anaesthetized with Inactin (0.5 mg/100 g body weight i.p.). Myometrial activity was recorded by means of a catheter fixed in the uterine cavity and filled with modified Locke's solution. The catheter was connected to a Statham P23d transducer and contractions were recorded on a Grass polygraph (model 7D). Oxytocin was infused intravenously (0.05 μg/min/100 g body weight). When a regular contraction pattern had been obtained the antagonist (0.8-8.0 μg/100 g body weight) was administered intravenously in a volume of 0.2 ml. The recorded curve was integrated over 10 minute intervals immediately before and after injection of the antagonist.

[4] = tested on: uterine contractions stimulated with lysine vasopressin; experiment: Clinical experiment: uterine contraction pattern of women under lysine vasopressin infusion; format: in vivo, human; conditions: single dose 5-25 μg i.v.
[5] = tested on: spontaneous menstrual pain; experiment: Clinical experiment: person with severe spontaneous menstrual pain; format: in vivo, human; conditions: 10 μg intravenously, one person

CCOc1ccc(C[C@@H]2NC(=O)CCSSC[C@@H](C(=O)N3CCC[C@H]3C(=O)N[C@@H](CC(C)C)C(=O)NCC(N)=O)NC(=O)[C@H](CC(N)=O)NC(=O)[C@H](CCC(N)=O)NC(=O)[C@H]([C@@H](C)CC)NC2=O)cc1 [1-deamino-2-O-ethyltyrosine-oxytocin]
dose for complete blocking of the oxytocin effect, relative to agonist dose ([1]; pregnant human uterus): approximately 5 times higher than the agonist dose | inhibition of oxytocin induced contractions ([1]; uterine tissue from pregnant women, in vitro): heavily inhibited oxytocin induced contractions | dose for complete blocking of the vasopressin effect, relative to agonist dose [2]: approximately 5 times higher than the agonist dose | activity as inhibitor compared to the two known analogues [3]: considerably more active as inhibitor | complete block of the uterine contraction pattern (oxytocin initiated and spontaneous) ([3]; dose of 2 μg): could completely block the uterine contraction pattern | inhibition of the increase of strength of uterine contractions caused by oxytocin infusion ([3]; oxytocin 0.05 μg/min/100 g body weight): dose dependent reversible inhibition | duration of the effect ([4]; varied between women): 45 to 180 min | amplitude and frequency of the uterine contraction pattern ([4]; women in early menstruation, lysine vasopressin 0.08 μg/min): inhibited to on the whole the same values as before the lycine vasopressin infusion | menstrual pain [5]: pronounced alleviation of the pain
